Columns and labels:
[1] = Change in weight and body composition (Example 1); format: in vivo, Wistar rats; conditions: for body weight: diet supplemented with hesperidin (0.5%) for 3 months, end of experimental period, mean±SD
[2] = Foodstuff consumption, weight change and body composition, six months' old rats (Example 3); format: in vivo, Wistar rats

COc1ccc([C@@H]2CC(=O)c3c(O)cc(O[C@@H]4O[C@H](CO[C@@H]5O[C@@H](C)[C@H](O)[C@@H](O)[C@H]5O)[C@@H](O)[C@H](O)[C@H]4O)cc3O2)cc1O [hesperidin, (S)-7-[[6-0-(6-deoxy-α-L-mannopyranosyl)-β-D-glucopyranosyl]oxy]-2,3-dihydro-5-hydroxy-2-(3-hydroxy-4-methoxyphenyl)-4H-1-benzopyran-4-one]
body weight ([1]; Hp OVX: oophorectomised rats): 406.3 ± 12.7 g
body weight ([1]; Hp SH: sham-operated rats): 335.4 ± 15.4 g
body composition (% fat mass with respect to total body weight) ([1]; between groups T SH, T OVX, Hp SH, Hp OVX, hesperidin 0.5% in diet, 3 months): no significant difference
body composition (percentage of fat mass) ([2]; all groups (FIG. 9)): not significantly modified
foodstuff consumption ([2]; groups SH, OVX, SH Hp, OVX Hp, hesperidin diet 72 days (FIG. 7)): no significant difference
